Data from patent US20040235049A1 (priority 2001, published 2004).
For some assays here: Where a sequence shows no end group, the ends are not given.

What was measured:
[1] = general procedure: Fmoc solid-phase peptide synthesis; methyl-2,3-O-isopropylidene-D-tartryl-Val-PEGA resin; Fmoc-PAL-PEG-PS; Novasyn TGR; HBTU/HOBt/DIEA; TBTU/HOBt/DIEA; settings: whole synthesis, scale of the general procedure 0.02 mole (24 peptides), 0.1 mmole; for final HPLC purity: analytical RP-HPLC, MALDI-TOF
[2] = general procedure: Fmoc solid-phase peptide synthesis; Novasyn TGR; HBTU/HOBt/DIEA; TBTU/HOBt/DIEA; settings: whole synthesis, scale 0.1 mmole

Substance: AAKLSGLGIN
- final HPLC purity [1]: 72%
- isolated yield [1]: 30%

Substance: AIPLEAIKGG
- final HPLC purity [1]: 80%
- isolated yield [1]: 30%

Substance: DVSVIPTSGD
- final HPLC purity [1]: 63%
- isolated yield [1]: 26%

Substance: EAIKGGRHLL
- final HPLC purity [1]: 75%
- isolated yield [1]: 34%

Substance: ELAAKLSGLG
- final HPLC purity [1]: 72%
- isolated yield [1]: 32%

Substance: GKAIPLEAIK
- final HPLC purity [1]: 90%
- isolated yield [1]: 32%

Substance: GLDVSVIPTS
- final HPLC purity [1]: 36%
- isolated yield [1]: 29%

Substance: GLGINAVAYY
- final HPLC purity [1]: 15%
- isolated yield [1]: 6%

Substance: IPLEAIKGGR
- final HPLC purity [1]: 76%
- isolated yield [1]: 30%

Substance: IPTSGDVVVV
- final HPLC purity [1]: 40%
- isolated yield [1]: 21%

Substance: KAIPLEAIKG
- final HPLC purity [1]: 91%
- isolated yield [1]: 30%

Substance: LAAKLSGLGI
- final HPLC purity [1]: 75%
- isolated yield [1]: 27%

Substance: LDVSVIPTSG
- final HPLC purity [1]: 78%
- isolated yield [1]: 28%

Substance: LEAIKGGRHL
- final HPLC purity [1]: 76%
- isolated yield [1]: 31%

Substance: PLEAIKGGRH
- final HPLC purity [1]: 31%
- isolated yield [1]: 35%

Substance: PTSGDYVVVA
- final HPLC purity [1]: 46%
- isolated yield [1]: 17%

Substance: SGLGINAVAY
- final HPLC purity [1]: 86%
- isolated yield [1]: 60%

Substance: SVIPTSGDVV
- final HPLC purity [1]: 64%
- isolated yield [1]: 30%

Substance: VIPTSGDVVV
- final HPLC purity [1]: 86%
- isolated yield [1]: 26%

Substance: VSVIPTSGDV
- final HPLC purity [1]: 60%
- isolated yield [1]: 28%

Substance: YGKAIPLEAI
- final HPLC purity [1]: 89%
- isolated yield [1]: 30%

Substance: biotin-GGKAYVLAG peptide (P-0193)
- crude mass [2]: 69 mg
- isolated mass [2]: 35.72 mg
